Results reported in patent US20200061153A1 (BAYLOR COLLEGE OF MEDICINE, published 2020).
Results are given in words; binding and its absence hold for the method and conditions named. Some binding calls cover weakened binding; strength is not graded here. For part of these data: Sequences can lack the tags named with a protein.

Sequences of proteins named here, by UniProt entry; tags and fusion partners are left off. A change or cut given only in a name is not applied to a line headed by its entry. Residues count along the entry.
UniProt P16109, residues 42-771: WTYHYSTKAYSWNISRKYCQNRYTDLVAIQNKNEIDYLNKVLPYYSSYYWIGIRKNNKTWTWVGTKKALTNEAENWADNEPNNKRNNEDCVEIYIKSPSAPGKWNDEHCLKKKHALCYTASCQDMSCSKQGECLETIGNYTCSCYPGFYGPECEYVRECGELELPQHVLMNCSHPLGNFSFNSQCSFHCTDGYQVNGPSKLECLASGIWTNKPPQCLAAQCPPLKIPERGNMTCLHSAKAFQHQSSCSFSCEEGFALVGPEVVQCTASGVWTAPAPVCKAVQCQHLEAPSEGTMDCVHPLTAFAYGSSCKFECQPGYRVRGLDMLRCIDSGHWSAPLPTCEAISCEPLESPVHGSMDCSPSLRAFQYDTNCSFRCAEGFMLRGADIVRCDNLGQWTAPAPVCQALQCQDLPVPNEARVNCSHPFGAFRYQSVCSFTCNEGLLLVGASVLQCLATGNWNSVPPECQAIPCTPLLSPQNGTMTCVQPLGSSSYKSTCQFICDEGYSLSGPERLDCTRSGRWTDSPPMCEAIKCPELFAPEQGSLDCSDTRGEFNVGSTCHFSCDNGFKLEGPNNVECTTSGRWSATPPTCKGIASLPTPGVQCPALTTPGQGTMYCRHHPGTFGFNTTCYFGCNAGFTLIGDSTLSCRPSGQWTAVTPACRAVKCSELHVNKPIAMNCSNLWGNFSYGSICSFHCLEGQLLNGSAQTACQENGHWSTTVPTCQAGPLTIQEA
UniProt P08670: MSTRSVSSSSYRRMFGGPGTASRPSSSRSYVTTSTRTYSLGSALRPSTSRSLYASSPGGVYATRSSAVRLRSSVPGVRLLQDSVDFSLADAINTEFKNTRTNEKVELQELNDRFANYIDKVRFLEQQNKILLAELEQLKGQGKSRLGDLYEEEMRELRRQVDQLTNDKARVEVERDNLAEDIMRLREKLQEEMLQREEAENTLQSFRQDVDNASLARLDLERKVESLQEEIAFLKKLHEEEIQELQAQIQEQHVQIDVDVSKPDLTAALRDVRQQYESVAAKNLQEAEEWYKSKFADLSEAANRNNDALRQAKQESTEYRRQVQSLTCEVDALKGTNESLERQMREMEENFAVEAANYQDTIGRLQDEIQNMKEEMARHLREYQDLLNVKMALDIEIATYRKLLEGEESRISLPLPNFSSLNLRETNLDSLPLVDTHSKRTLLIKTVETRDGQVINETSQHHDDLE

Experiments:
[1] = target: P-selectin/Fc chimeric protein (UniProt P16109); test: SPR (BIACore), response (RU) against concentration (M); text: binding to immobilized P-sel/Fc, IgG as control
[2] = target: P-selectin/Fc chimeric protein (UniProt P16109); test: summary of SPR of Example 1
[3] = target: recombinant human vimentin (rhVim), expressed from pQE-30 in E. coli M15 (human) (UniProt P08670); test: BLI, rhVim immobilized
[4] = target: recombinant human vimentin (rhVim), expressed from pQE-30 in E. coli M15 (human) (UniProt P08670); test: SPR (BIACore), rhVim immobilized
[5] = target: P-selectin/Fc chimeric protein (UniProt P16109); test: ELISA, wells coated with P-selectin/Fc 10 µg/mL in DPBS, blocked with 1% BSA, rhVim added at rising concentrations, detection with HRP-conjugated anti-polyhistidine antibody
[6] = target: P-selectin/Fc chimeric protein (UniProt P16109); test: ELISA (FIG. 15C)
[7] = target: P-selectin/Fc chimeric protein (UniProt P16109); test: ELISA, wells coated with P-selectin/Fc 10 µg/mL, HRP anti-polyhistidine detection
[8] = target: P-selectin/Fc chimeric protein (UniProt P16109); test: summary of ELISA and SPR of Example 1
[9] = target: P-selectin/Fc chimeric protein (UniProt P16109); test: SPR (BIACore) (FIG. 6C)
[10] = target: P-selectin/Fc chimeric protein (UniProt P16109); test: ELISA, wells coated with P-selectin/Fc 10 µg/mL, anti-His/HRP detection
[11] = target: P-selectin/Fc chimeric protein (UniProt P16109); test: ELISA, wells coated with P-selectin/Fc 10 µg/mL, srhVim added at rising concentrations, detection with anti-His/HRP
[12] = target: P-selectin/Fc chimeric protein (UniProt P16109); test: ELISA binding saturation curve (FIG. 6B)
[13] = target: recombinant human vimentin (rhVim), expressed from pQE-30 in E. coli M15 (human) (UniProt P08670); test: BLI (Octet Red 384), rhVim immobilized on amine reactive sensors
[14] = target: recombinant human vimentin (rhVim), expressed from pQE-30 in E. coli M15 (human) (UniProt P08670); test: SPR (BIACore), rhVim immobilized on CM5 chip; the text says there was no binding

With “rod domain of human vimentin (amino acids 96-407), expressed from pET30 in E. coli (from UniProt P08670 96-407)” the binding [1] was “binds” and the binding [2] was “binds”.

With “P-selectin/Fc chimeric protein (from UniProt P16109 42-771) (Fc fusion)” the binding [3] was “binds” and the binding [4] was “binds”.

In the case of “recombinant human vimentin (rhVim), expressed from pQE-30 in E. coli M15 (from UniProt P08670 2-466)”, the binding [5] is reported as “binds”, the binding [6] is reported as “binds” and the binding [7] is reported as “binds”.

“soluble recombinant human vimentin (srhVim), full length, expressed from pET30 in E. coli (from UniProt P08670 2-466)” was tested, and the binding [1] was “binds”, the binding [8] was “binds” and the binding [9] was “binds”. The binding [10] was “binds”, the binding [11] was “binds” and the binding [12] was “binds”.

B1: E-selectin/Fc (Fc fusion, UniProt P16581 22-556, looked up, not shown: a dimerising Fc or GST)
chain: WSYNTSTEAMTYDEASAYCQQRYTHLVAIQNKEEIEYLNSILSYSPSYYWIGIRKVNNVWVWVGTQKPLTEEAKNWAPGEPNNRQKDEDCVEIYIKREKDVGMWNDERCSKKKLALCYTAACTNTSCSGHGECVETINNYTCKCDPGFSGLKCEQIVNCTALESPEHGSLVCSHPLGNFSYNSSCSISCDRGYLPSSMETMQCMSSGEWSAPIPACNVVECDAVTNPANGFVECFQNPGSFPWNTTCTFDCEEGFELMGAQSLQCTSSGNWDNEKPTCKAVTCRAVRQPQNGSVRCSHSPAGEFTFKSSCNFTCEEGFMLQGPAQVECTTQGQWTQQIPVCEAFQCTALSNPERGYMNCLPSASGSFRYGSSCEFSCEQGFVLKGSKRLQCGPTGEWDNEKPTCEAVRCDAVHQPPKGLVRCAHSPIGEFTYKSSCAFSCEEGFELHGSTQLECTSQGQWTEEVPSCQVVKCSSLAVPGKINMSCSGEPVFGTVCKFACPEGWTLNGSAARTCGATGHWSGLLPTCEAPTESNIP
For B1, the binding [13] was “no binding (tested: 0-1,000 nM)” and the binding [14] was “no binding (tested: 10-1,000 nM)”.
